# Measured values taken from PubChem BioAssay AID602313 (National Center for Advancing Translational Sciences (NCATS), 2012).
# Screen size: about 390,000 compounds; about 760 (0.19%) were called active. The inconclusive results got no clear call from the source; some entries with a clear call stand among them for comparison. Calls follow the shape of the dose curve; as a rule, active = well fitted inhibition curve with a large enough effect; inconclusive = small, poorly fitted or top-dose-only effect; inactive = flat fitted curve, though single readings scatter. Potencies beside an inconclusive call are fits to weak or partial responses and may not hold up.
# Test: qHTS for Inhibitors of Vif-A3F Interactions: qHTS; also: nearly all actives have a fitted effect of over 65% in size; as to activity, negative = active: % of control where 0% means no effect
# Conditions: HeLa A3F-eYFP + Vif (tagged APOBEC3F with the HIV-1 protein that degrades it), YFP fluorescence increase; series mostly up to 46.1 µM; activity, negative = active: at the top concentration
# Procedure, shortened: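 HeLa cells stably expressing A3F-eYFP plus Vif, plated and incubated overnight at 37 deg C, then exposed to compounds overnight at 37 deg C. Blocked degradation read as raised yellow fluorescence (Ex 488/Em 500-530).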
# Potency is read from the fitted curve at half-maximal effect.
Structure (SMILES),Potency,"activity, negative = active"
CCC(C)(C)C1CCC(=NNC(=S)Nc2cccnc2)CC1 (stereo not given),"inconclusive: 7.94 µM [inhibitor, partial curve, poor fit]",
COc1ccc(CCNc2nc(SCc3ccccc3F)nc3ccccc23)cc1OC,,inactive: 1.27%
CCOc1ccc2nc3cc(NCc4ccc(OC)cc4)ccc3c(N)c2c1,"inconclusive: 35.5 µM [inhibitor, single point]",
Cc1ccc(NC(=O)c2c3c(nc4ccccc24)C(=O)N(C2CCCCC2)C3)cc1F,"inconclusive: 6.31 µM [inhibitor, partial curve, poor fit]",
O=C(CN1CCCC1)Nc1cccc(Cl)c1Cl,"inconclusive: 35.5 µM [inhibitor, single point]",
O=C(Nc1nccs1)c1cc2c(s1)-c1ccccc1OC2,"inconclusive: 35.5 µM [inhibitor, single point]",
O=C(CN1C(=O)/C(=C\C=C\c2ccccc2)SC1=S)Nc1ccc(F)cc1,"inconclusive: 28.2 µM [inhibitor, single point]",
Cc1ccc(C(C)C)c(OCCNCCc2ccccc2)c1,"inconclusive: 25.1 µM [inhibitor, single point]",
Cc1ccccc1C(=O)NC(CC(C)C)C(=O)NN1C(=O)c2ccccc2C1=O (stereo not given),"inconclusive: 4.47 µM [inhibitor, single point]",
C/C(=N\NC(=O)Cc1c(Cl)cccc1Cl)c1cccnc1,"inconclusive: 0.631 µM [inhibitor, full curve, poor fit]",
COc1cccc(NC(=O)c2sc3nc(C)c(C(=O)Nc4ccc(C)cc4C)c(-c4ccco4)c3c2N)c1,"inconclusive: 10 µM [inhibitor, partial curve]",
COCc1cc(C)nc2sc(C(=O)Nc3ccc(C(C)=O)cc3)c(N)c12,"inconclusive: 31.6 µM [inhibitor, single point]",
Cc1nc(SCC(=O)N(C)C2(C#N)CCCCC2)c2ccccc2n1,"inconclusive: 35.5 µM [inhibitor, single point]",
CCOC(=O)c1cc2c(=O)n3ccccc3nc2n(Cc2ccco2)c1=NC(=O)c1cccc(C)c1,"inconclusive: 35.5 µM [inhibitor, single point]",
Fc1ccccc1NC(=S)Nc1ccc(Br)cc1,"inconclusive: 35.5 µM [inhibitor, single point]",
Cc1cc(C)n(-c2nc(SCCN3CCOCC3)c3c4c(sc3n2)CCCC4)n1,"inconclusive: 7.94 µM [inhibitor, partial curve, poor fit]",
Nc1nc2nc(-c3ccccc3)cc(C(F)(F)F)c2s1,,inactive: -13.4%
N=c1n(CC(=O)c2cccc([N+](=O)[O-])c2)c2ccccc2n1Cc1ccccc1,"inconclusive: 35.5 µM [inhibitor, single point]",
Cc1ccc(NC2Nc3cc(C)nn3S2)c(C)c1 (stereo not given),"inconclusive: 14.1 µM [inhibitor, single point]",
CCCCn1c(N)c(N(CC(C)C)C(=O)c2ccc(-c3ccc(Cl)cc3)o2)c(=O)[nH]c1=O,"inconclusive: 35.5 µM [inhibitor, single point]",

# Copied from above, 2 compounds:
Structure (SMILES),Potency,"activity, negative = active"
Cc1ccccc1C(=O)NC(CC(C)C)C(=O)NN1C(=O)c2ccccc2C1=O (stereo not given),"inconclusive: 4.47 µM [inhibitor, single point]",
C/C(=N\NC(=O)Cc1c(Cl)cccc1Cl)c1cccnc1,"inconclusive: 0.631 µM [inhibitor, full curve, poor fit]",

# (cont.)

Structure (SMILES),Potency,"activity, negative = active"
O=C1c2cc(Cl)ccc2-c2c(O)cc(Cl)cc21,"inconclusive: 35.5 µM [inhibitor, single point]",
CCCCCCC1CC(=O)NC(=O)N1 (stereo not given),"inconclusive: 1.58 µM [inhibitor, partial curve, poor fit]",
Clc1cccc(-c2nc3ccccn3c2Nc2ccc3c(c2)OCCO3)c1,,inactive: -4.96%
CCCCCSc1nnc(-c2ccccc2NC(C)=O)c(=O)[nH]1,"inconclusive: 6.31 µM [inhibitor, single point]",
CCN(CC)CC(=O)N1c2ccccc2Sc2ccccc21,"inconclusive: 28.2 µM [inhibitor, single point]",
COc1ccc(S(=O)(=O)Cc2ccc(C(=O)N3CCN(c4cccc(C)c4C)CC3)o2)cc1,,inactive: -0.677%
S=C(Nc1cccc(Cl)c1)NC1CCCCC1,,inactive: -1.66%
CN(O)/C=N/C(=S)Nc1ccc(Cl)cc1Cl,"inconclusive: 35.5 µM [inhibitor, single point]",
CCOc1ncccc1C(=O)Nc1nnc(C(CC)CC)s1,"inconclusive: 0.355 µM [inhibitor, full curve, poor fit]",
COc1cccc(NC(=S)NC(Cc2ccccc2)c2ccccc2)c1 (stereo not given),"inconclusive: 25.1 µM [inhibitor, single point]",
CC1CCN(C(=O)c2ccc3c(c2)NC(=O)CN3)CC1,"inconclusive: 3.16 µM [inhibitor, partial curve, poor fit]",
Cc1cc(C)c2oc(-c3ccc(NC(=O)COc4ccccc4C)cc3)nc2c1,"inconclusive: 14.1 µM [inhibitor, partial curve, poor fit]",
Cc1cccc(-c2noc(-c3ccc(NCc4ccccc4)c([N+](=O)[O-])c3)n2)c1,"inconclusive: 6.31 µM [inhibitor, single point]",
COc1cc(/C=C2\SC(=S)N(C(Cc3ccccc3)C(=O)O)C2=O)ccc1O (stereo not given),"inconclusive: 22.4 µM [inhibitor, single point]",
N/C(=C\C(=O)c1cc(Cl)ccc1O)C(Cl)(Cl)Cl,"inconclusive: 6.31 µM [inhibitor, single point]",
Cc1cc2oc(=O)cc(CN3CCCCC3C)c2cc1C(C)C (stereo not given),"inconclusive: 35.5 µM [inhibitor, partial curve, poor fit]",
O=C(COc1ccccc1/C=C\c1[nH]c(=O)[nH]c(=O)c1[N+](=O)[O-])Nc1ccccc1,,inactive: 0.725%
CCOC(=O)C1=C(C)n2c(s/c(=C/c3cccc([N+](=O)[O-])c3)c2=O)=NC1c1ccc(O)c(OC)c1 (stereo not given),"inconclusive: 35.5 µM [inhibitor, single point]",
CCOC(=O)c1cccc(NS(=O)(=O)c2ccc(-c3coc(C)n3)cc2)c1,"inconclusive: 35.5 µM [inhibitor, single point]",
COc1ccc(-c2cc(C(F)(F)F)n3ncc(-c4ccccc4)c3n2)cc1,"inconclusive: 15.8 µM [inhibitor, partial curve, poor fit]",
